Measurements as given in PubChem BioAssay AID652053 (Broad Institute, 2013).
About 930 (72%) of roughly 1,300 compounds were called active.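 The calls were made as follows: active = fitted curve reaches 40% activation signal increase at or below the top valid tested concentration in every replicate test; inconclusive = replicate tests disagree in their calls; inactive = all replicate tests inactive, including effects opposite the expected signal rise.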 The set was probably picked from earlier hits. Inconclusive results, whose numbers are uncertain, are shown. Square brackets hold non-standard residues; d marks the D form. Peptide text beside a SMILES is read from it. * marks the point of attachment. ξ: configuration not given here. ξNMe2Val = CC(C)C(C(=O)*)N(C)C; NMeV = CN[CH](C(=O)O)C(C)C; NHBn = c1ccc(CN*)cc1

Test: suppression of miR-122 activity, Renilla luciferase sensor – cell-based, Huh7 psiCHECK-miR122, cherry-pick, dose response (AID 652053)
Details: Huh7 psiCHECK-miR122 Renilla luciferase reporter, 48 h; at 35 µM (top of the series)

Question: With `CC(C)C(NC(=O)C(C(C)C)N(C)C)C(=O)N(C)C(C(=O)N1CCCC1C(=O)N1CCCC1C(=O)NCc1ccccc1)C(C)C` (stereo unspecified) (ξNMe2Val-V[NMeV]PP-NHBn; configuration not given here) as the compound, how does the activation (miR-122 inhibition) read?
Answer: inconclusive: 29.8%
